Results as given in paper doi:10.1101/2024.01.26.577166.
Results are given in words; binding and its absence hold for the method and conditions named. Binding seen in cells or lysates may run through a third protein. Here binding means that the protein was enriched with, or labelled near, the bait; the list need not be complete. Sequences can lack the tags named with a protein.

B1: RAF20 (endogenous) (protein, UniProt Q9SAJ2 1-1248)
chain: MDKARHQQLFQHSMEPGYRNETVPQPFMPDQTGSASANMRPPNSNGSDVKAVHNFSIQTGEEFSLEFMRDRVIPQRSSNPNGAGDMNYNTGYMELRGLIGISHTGSECASDVSRFSTVENGTSDIERTNSSLHEFGNKLNHVQSAPQALLSKDSSVGNLHGYKNTSSSASGSVTAKVKILCSFGGKILPRPGDSKLRYVGGETHIISIRKDISWQELRQKILEIYYQTRVVKYQLPGEDLDALVSVSSEEDLQNMLEEYNEMENRGGSQKLRMFLFSISDMDDALLGVNKNDGDSEFQYVVAVNGMDIGSGKNSTLLGLDSSSANNLAELDVRNTEGINTIAGDVVGVGASQLMVNGFQQTSAQQSESIPPSSSLHYSQSIPLNAAYQLQQSVPPSSALHYPQSITPGSSLQYPQSITPGSSYQYPQSIIPGSASSYGIYPQYYGHVVQHGERERFPLYPDHSSNYSAIGETTSSIPIQGHVSQQGGWAEGYPYPGSTPKSTQALAEEQKVSSDMKIREEVEPENRKTPGNDHQNPPQIDDVEVRNHNQVREMAVATTPPSQDAHLLPPSRDPRQNTTAKPATYRDAVITGQVPLSGIEDQLSTSSSTYAPVHSDSESNLIDLNYPEPEQSSQRVYCSERIPREQLELLNRLSKSDNSLSSQFVTSESPANTAQQDSGKEAVGKSHDEFKTVNDDANHHTHKDVETIFEKVGVSDETLESEPLHKIVNPDDANKNRVVNGADTEIGVSNLSHVNAAMSHVIPEEQASLQGDILIDINDRFPRDFLSEIFSQAISEDTSTVRPYPHDGAAVSMNVQNHDRKNWSYFQQLAEDQFIQRDVVLDQADSRIPSDRKDGGESSRLPYVSPLSRDGISTNLANPQLTLGQDYGGNFSEKDGGGTGSIPPALENEQMKVTESEEFGAMVENLRTPDSEPKDEKTETRHAALPPLGSEFDYSGLQIIKNEDLEELRELGSGTFGTVYHGKWRGSDVAIKRIKKSCFAGRSSEQERLTGEFWGEAEILSKLHHPNVVAFYGVVKDGPGGTLATVTEYMVDGSLRHVLVRKDRHLDRRKRLIIAMDAAFGMEYLHSKNTVHFDLKCDNLLVNLKDPSRPICKVGDFGLSKIKRNTLVSGGVRGTLPWMAPELLNGSSSKVSEKVDVFSFGIVLWEILTGEEPYANMHYGAIIGGIVNNTLRPTIPGFCDDEWRTLMEECWAPNPMARPSFTEIAGRLRVMSSAATSTQSKPSAHRASK
B2: J3 (endogenous) (protein, UniProt Q94AW8 1-420)
chain: MFGRGPSKKSDNTKFYEILGVPKSASPEDLKKAYKKAAIKNHPDKGGDPEKFKELAQAYEVLSDPEKREIYDQYGEDALKEGMGGGGGGHDPFDIFSSFFGGGPFGGNTSRQRRQRRGEDVVHPLKVSLEDVYLGTMKKLSLSRNALCSKCNGKGSKSGASLKCGGCQGSGMKVSIRQLGPGMIQQMQHACNECKGTGETINDRDRCPQCKGDKVIPEKKVLEVNVEKGMQHSQKITFEGQADEAPDTVTGDIVFVLQQKEHPKFKRKGEDLFVEHTLSLTEALCGFQFVLTHLDGRSLLIKSNPGEVVKPDSYKAISDEGMPIYQRPFMKGKLYIHFTVEFPDSLSPDQTKALEAVLPKPSTAQLSDMEIDECEETTLHDVNIEDEMRRKAQAQREAYDDDDEDDDHPGGAQRVQCAQQ
B3: AtMED11 (endogenous) (protein, UniProt Q6ID77 1-115)
chain: MDPQTQNTSLQRLQNVENRVVKVLELAGGVMEELASPSGPKKEFVNSHCREFMQSMKDIQVTLREEIKSACEYRPFEKCDYNARIANEICFQKLEYVLTQLEDLKQTADRYPSSD

Target: T1, AtMED25-GFP (35S:AtMED25-GFP plants) (Arabidopsis thaliana) (UniProt Q7XYY2)
T1 sequence: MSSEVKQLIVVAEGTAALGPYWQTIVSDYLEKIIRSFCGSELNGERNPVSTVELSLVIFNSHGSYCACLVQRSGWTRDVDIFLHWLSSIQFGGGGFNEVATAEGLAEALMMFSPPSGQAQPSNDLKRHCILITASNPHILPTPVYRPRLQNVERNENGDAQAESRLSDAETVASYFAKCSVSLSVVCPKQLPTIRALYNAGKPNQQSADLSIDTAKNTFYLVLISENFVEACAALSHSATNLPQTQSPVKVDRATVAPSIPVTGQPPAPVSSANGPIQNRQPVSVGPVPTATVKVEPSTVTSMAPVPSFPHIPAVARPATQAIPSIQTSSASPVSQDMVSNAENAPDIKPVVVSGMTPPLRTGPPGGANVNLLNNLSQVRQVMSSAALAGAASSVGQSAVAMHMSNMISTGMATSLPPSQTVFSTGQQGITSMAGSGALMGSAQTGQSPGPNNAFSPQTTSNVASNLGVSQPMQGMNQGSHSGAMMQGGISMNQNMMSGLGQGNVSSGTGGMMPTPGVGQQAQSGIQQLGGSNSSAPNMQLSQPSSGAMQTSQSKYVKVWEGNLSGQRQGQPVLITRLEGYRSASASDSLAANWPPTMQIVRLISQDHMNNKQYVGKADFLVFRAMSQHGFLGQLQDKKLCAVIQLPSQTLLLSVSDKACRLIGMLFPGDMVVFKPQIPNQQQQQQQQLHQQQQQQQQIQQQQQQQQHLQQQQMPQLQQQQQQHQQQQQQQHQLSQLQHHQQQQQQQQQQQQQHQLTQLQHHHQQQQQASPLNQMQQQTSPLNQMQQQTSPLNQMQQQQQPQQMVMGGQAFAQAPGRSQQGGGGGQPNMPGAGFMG
Experiment: affinity purification with mass spectrometry

Binder | binding
B1 | binds
B2 | binds
B3 | binds
